Experimental data published in the supplement of paper PMC3334620.
Whole data set: some 33,000 sequences, median “E-score (-0.5 to 0.5)” near -0.016, cut for the highest 2% near 0.3. The list shows a part of the results.

What follows are sequences tested against T1, Yer184c (UniProt P39961) (assay: PBM E-score (8-mer binding enrichment) (E-score (-0.5 to 0.5)); higher = stronger / more preferred TF binding). Conditions: protein concentration: 100 nM; construct: GST-full length.
T1 sequence: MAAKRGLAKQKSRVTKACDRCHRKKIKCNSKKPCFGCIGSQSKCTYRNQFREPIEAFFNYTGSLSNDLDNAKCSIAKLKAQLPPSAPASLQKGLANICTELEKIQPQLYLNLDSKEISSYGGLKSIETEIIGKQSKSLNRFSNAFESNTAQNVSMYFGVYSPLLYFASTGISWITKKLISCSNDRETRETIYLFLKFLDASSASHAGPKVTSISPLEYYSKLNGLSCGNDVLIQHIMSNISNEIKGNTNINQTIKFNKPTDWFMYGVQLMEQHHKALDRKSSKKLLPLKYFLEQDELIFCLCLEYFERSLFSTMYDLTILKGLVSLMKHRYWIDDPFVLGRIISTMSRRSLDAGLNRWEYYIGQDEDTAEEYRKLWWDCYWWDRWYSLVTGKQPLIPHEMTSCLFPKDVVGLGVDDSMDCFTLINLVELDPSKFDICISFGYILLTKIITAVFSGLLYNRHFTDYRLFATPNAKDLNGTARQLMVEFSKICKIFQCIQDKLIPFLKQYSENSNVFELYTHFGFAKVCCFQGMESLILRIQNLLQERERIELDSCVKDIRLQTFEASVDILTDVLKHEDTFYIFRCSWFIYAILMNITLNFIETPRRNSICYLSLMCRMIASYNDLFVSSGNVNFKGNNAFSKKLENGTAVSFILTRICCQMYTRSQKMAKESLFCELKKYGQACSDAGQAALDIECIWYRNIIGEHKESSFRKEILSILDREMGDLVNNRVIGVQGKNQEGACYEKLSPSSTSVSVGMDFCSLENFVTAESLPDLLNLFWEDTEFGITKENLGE
Procedure, shortened: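 Yeast transcription factors carrying a GST tag, as full-length proteins or DNA-binding domains, were produced by PURExpress in vitro transcription/translation. About 100-200 nM protein was applied to universal all-10-mer Agilent arrays, double-stranded by primer extension on fresh or once-stripped slides. Bound protein was detected with fluorescent anti-GST, and scans were normalised with masliner. The Universal PBM Analysis Suite gave each ungapped eight-base word, pooled with its reverse complement, an E-score, a modified Wilcoxon-Mann-Whitney statistic.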

| Sequence | PBM E-score |
| --- | --- |
| CGCATCAA | 0.0995 |
| AAAATGGT | 0.195 |
| AAACAAAC | 0.141 |
| ATTGACCC | 0.0514 |
| ACTCAACG | -0.0289 |
| ACGGCGCT | -0.0793 |
| ACTTAAGG | 0.0766 |
| ATAGGTGG | -0.193 |
| AAACCGTG | -0.00637 |
| ACTTTTGG | 0.0221 |
| TATCCATA | 0.133 |
| CCGTTACA | 0.147 |
| CCTGCAGC | -0.0738 |
| GCCGCATA | 0.185 |
| AGTTAGTG | 0.00554 |
| AAATAGAT | 0.243 |
| TATCGGGA | 0.105 |
| TGCCAACA | 0.0644 |
| TGTAGGAA | -0.0799 |
| ATGTCCTA | -0.0127 |
| ACATCCCT | 0.00032 |
| AAATACCG | 0.271 |
| AGGTTGAA | 0.0439 |
| CACGTCCC | -0.261 |
| AAGAGCTG | -0.0953 |

| Sequence | PBM E-score |
| --- | --- |
| TTATAGAA | 0.202 |
| CGCCACAG | -0.186 |
| AGGCCCAA | -0.0831 |
| ATTGAAAG | 0.014 |
| CCGAAATA | 0.34 |
| CCTGTTTC | -0.115 |
| AGCAGTCA | -0.198 |
| CGATTCCG | 0.218 |
| CTCGTAGA | -0.253 |
| AGCTTACA | 0.0783 |
| TAGCGGCA | 0.136 |
| GGGAGGAA | 0.0275 |
| AAACCAGC | 0.0764 |
| GAAGTGGA | 0.0603 |
| ACCGGCGA | 0.284 |
| CTCTATAA | 0.0398 |
| CATATAGG | -0.0617 |
| TACTGACA | 0.146 |
| ATAAGCAC | -0.0228 |
| ACTGTGAT | -0.0878 |
| AAACTATC | 0.144 |
| ACATCATC | -0.102 |
| CTGGGTGC | -0.325 |
| GGCCAATA | -0.0246 |
| GAGAGCTA | -0.106 |

| Sequence | PBM E-score |
| --- | --- |
| AACGACGA | 0.121 |
| GAAGATGA | -0.00959 |
| ACCGTACA | 0.0254 |
| GTACGCCA | -0.241 |
| ACTAAACG | 0.0312 |
| CTGACTAC | -0.182 |
| GGAGTATA | 0.0676 |
| GACCTCCA | -0.121 |
| TCCGGCGA | 0.38 |
| AACGCGGC | 0.0651 |
| CCGGACAA | 0.29 |
| CGGTCTTC | 0.0284 |
| GTGATCGA | 0.115 |
| ATGAATGA | 0.0473 |
| GGAAAGCC | 0.0411 |
| CCCATGAG | -0.296 |
| GTCCCTTA | -0.114 |
| ATTGGCCA | -0.148 |
| TGGTGCAA | -0.134 |
| GTTCTGGA | 0.0262 |
| AGTGGTAT | -0.154 |
| AATCGCCA | -0.18 |
| TCCCGAAA | 0.196 |
| TCAAGGAA | -0.00111 |
| AAGAGTGC | -0.165 |

| Sequence | PBM E-score |
| --- | --- |
| ACAAGTAT | 0.0335 |
| AATTTGGT | 0.162 |
| AGACTTAC | -0.243 |
| ATGCTCCG | 0.113 |
| ACCACCCA | -0.14 |
| AATGGATG | 0.0225 |
| ACAGGTAA | 0.0433 |
| ACACAACA | 0.185 |
| AATGTTTC | 0.0956 |
| GTGACTAA | 0.097 |
| GCCTAAGA | -0.0772 |
| GAGTCCGA | 0.181 |
| ACCCACGA | -0.154 |
| ATATCTCA | 0.185 |
| GAGGCTGA | -0.172 |
| GGCGAGTA | -0.0743 |
| TACGAGTA | 0.0407 |
| AAGTAAGC | 0.00484 |
| CCGAGGTC | 0.136 |
| TCTCCTCA | -0.269 |
| GGAGTCTA | -0.317 |
| ATCCTTAA | -0.129 |
| CTTCCCAA | -0.0377 |
| GATATAAC | 0.124 |
| GTGGGGGA | -0.4 |

| Sequence | PBM E-score |
| --- | --- |
| CGATTGGC | -0.027 |
| ATCACCCG | -0.0106 |
| CTCGTCCC | -0.167 |
| CTCCAGCC | -0.233 |
| ATTATTTG | 0.111 |
| ACCTTTCG | -0.00772 |
| GTCTCTGA | 0.0262 |
| CGCTTTAA | 0.0403 |
| AATGTCAC | 0.0453 |
| ATTCTGTC | -0.0829 |
| ACATAGCT | -0.113 |
| ACATGGCC | -0.0855 |
| ACAACCTA | -0.00165 |
| TTGACCAA | -0.0616 |
| CGTAACAA | 0.143 |
| CGAAGGAG | 0.0167 |
| ACGAGTCG | -0.151 |
| ATAAACTA | 0.203 |
| GAGAGACC | -0.155 |
| ACGTCCGC | 0.114 |
| ACTCGAAA | 0.148 |
| TACATCTA | 0.164 |
| ACAACCGT | 0.0402 |
| CGACGTTA | 0.175 |
| ACTACGGC | 0.0494 |

Two neighbouring records already listed:

| Sequence | PBM E-score |
| --- | --- |
| ATAAACTA | 0.203 |
| GAGAGACC | -0.155 |

Part of the list above, reformatted:
Sequence	PBM E-score
AATGTCAC	0.0453
ATTCTGTC	-0.0829
ACATAGCT	-0.113

Carrying on:

| Sequence | PBM E-score |
| --- | --- |
| CAAGCGGC | 0.258 |
| GACGCGGC | 0.0425 |
| ACTTGACA | -0.0214 |
| CTCTTTAC | -0.102 |
| GTTGTCAA | -0.0418 |
| GGAATACC | 0.0389 |
| AGAAAACC | 0.0683 |
| GCTATTAA | 0.158 |
| GCACATGA | -0.171 |
| CCCGGTCA | -0.0298 |
| TCACTTAA | 0.0622 |
| GTAATACA | 0.118 |
| ACCATTAG | -0.0751 |
| AAGCCCCT | -0.247 |
| ATATTGAC | -0.0324 |
| AAGCGCTT | 0.306 |
| CCGTATAC | 0.0361 |
| CCGAGACA | 0.0813 |
| CATGGCCC | -0.132 |
| ATCCGGTG | 0.353 |
| CGGTGCAC | -0.1 |
| CTATAGCC | -0.202 |
| ACTATTCA | 0.0829 |
| CTCCAGAC | -0.0743 |
| GGGACAAA | -0.00844 |

Part of the list above, reformatted.
Sequence	PBM E-score
GGAATACC	0.0389
AGAAAACC	0.0683
GCTATTAA	0.158
GCACATGA	-0.171
CCCGGTCA	-0.0298
TCACTTAA	0.0622

More results follow:

| Sequence | PBM E-score |
| --- | --- |
| CGGTTCCC | 0.0223 |
| TAGGTTAA | 0.0756 |
| CAACCGCC | -0.042 |
| CTTATGTC | -0.135 |
| TCCGTTAA | 0.305 |
| TGATAGCA | 0.0336 |
| CTGTCCGC | 0.0717 |
| AAATGATA | 0.162 |
| ATGTAAAT | 0.0693 |
| GACTTTCA | -0.0149 |
| GACAACCC | -0.0862 |
| AGCGGATG | -0.0323 |
| ATACACGG | 0.047 |
| ATTCAGAA | 0.0922 |
| AGAGCTAC | -0.15 |
| CGGCACTC | 0.124 |
| CCGAAGGA | 0.158 |
| CACGATCC | 0.127 |
| AGGGGCCC | -0.227 |
| GCACAAGC | -0.033 |
| CTAATTAG | -0.0123 |
| GGGAATCA | 0.0818 |
